Measured values published in article PMC7766085.
Results are given in words; binding and its absence hold for the method and conditions named. Binding seen in cells or lysates may run through a third protein. Some binding calls cover weakened binding; strength is not graded here. Where a sequence is shown, tags or fusion partners need not be part of it.

The chains behind the UniProt entries cited, without tags or fusion partners.
UniProt P32121: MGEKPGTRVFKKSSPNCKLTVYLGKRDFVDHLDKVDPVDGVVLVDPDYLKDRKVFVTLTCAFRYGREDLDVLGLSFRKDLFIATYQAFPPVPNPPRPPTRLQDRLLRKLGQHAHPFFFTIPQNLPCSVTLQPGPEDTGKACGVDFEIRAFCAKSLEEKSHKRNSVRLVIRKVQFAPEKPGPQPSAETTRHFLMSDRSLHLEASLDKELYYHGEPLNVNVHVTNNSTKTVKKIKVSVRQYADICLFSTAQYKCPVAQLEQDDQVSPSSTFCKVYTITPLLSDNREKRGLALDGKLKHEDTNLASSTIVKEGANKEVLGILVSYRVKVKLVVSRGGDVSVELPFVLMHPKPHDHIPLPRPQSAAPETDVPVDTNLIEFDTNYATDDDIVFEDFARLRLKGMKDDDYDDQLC

Target: T1, MasR-YFP (human MAS1 oncogene receptor fused to enhanced yellow fluorescent protein) (human) (UniProt P04201)
T1 sequence: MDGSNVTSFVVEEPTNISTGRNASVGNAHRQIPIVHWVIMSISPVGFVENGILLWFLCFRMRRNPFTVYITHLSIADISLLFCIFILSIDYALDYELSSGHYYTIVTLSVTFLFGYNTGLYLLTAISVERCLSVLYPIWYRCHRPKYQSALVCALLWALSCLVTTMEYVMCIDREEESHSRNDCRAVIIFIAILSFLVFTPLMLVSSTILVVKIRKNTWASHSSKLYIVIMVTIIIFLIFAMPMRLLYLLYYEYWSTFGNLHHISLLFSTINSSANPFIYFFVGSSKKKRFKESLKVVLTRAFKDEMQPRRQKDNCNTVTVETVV
Test: FRET or BRET; β-arrestin recruitment: BRET between β-arrestin II-RLuc and receptor-YFP in HEK-293T cells 48 h after transfection, with or without ACE2-HA; stimulated 10 min with agonist (Ang II, CGP or Ang 1-7, 0.1 nM to 3 µM); 5 µM coelenterazine H

**Q.** How did the binding turn out when “β-arrestin II-RLuc (from UniProt P32121 1-409)” was run?
**A.** Its binding is “binds”.
